Test results reported in publication PMC9425028.
These are yes or no findings as the source states them, for the method shown. In cells and extracts the contact can be indirect. Some results given as binding are weak or reduced against the parent protein; the word gives no strength.

Amino acid sequences for entries named in this document (tags omitted). A change or cut given only in a name is not applied to a line headed by its entry. Chains listed by the source or under a name are the forms on record and can include a tag or linker.
wild-type recombinant mouse MASP-3 fused with PA-tag (WT rmMASP-3-PA) (P98064, form named): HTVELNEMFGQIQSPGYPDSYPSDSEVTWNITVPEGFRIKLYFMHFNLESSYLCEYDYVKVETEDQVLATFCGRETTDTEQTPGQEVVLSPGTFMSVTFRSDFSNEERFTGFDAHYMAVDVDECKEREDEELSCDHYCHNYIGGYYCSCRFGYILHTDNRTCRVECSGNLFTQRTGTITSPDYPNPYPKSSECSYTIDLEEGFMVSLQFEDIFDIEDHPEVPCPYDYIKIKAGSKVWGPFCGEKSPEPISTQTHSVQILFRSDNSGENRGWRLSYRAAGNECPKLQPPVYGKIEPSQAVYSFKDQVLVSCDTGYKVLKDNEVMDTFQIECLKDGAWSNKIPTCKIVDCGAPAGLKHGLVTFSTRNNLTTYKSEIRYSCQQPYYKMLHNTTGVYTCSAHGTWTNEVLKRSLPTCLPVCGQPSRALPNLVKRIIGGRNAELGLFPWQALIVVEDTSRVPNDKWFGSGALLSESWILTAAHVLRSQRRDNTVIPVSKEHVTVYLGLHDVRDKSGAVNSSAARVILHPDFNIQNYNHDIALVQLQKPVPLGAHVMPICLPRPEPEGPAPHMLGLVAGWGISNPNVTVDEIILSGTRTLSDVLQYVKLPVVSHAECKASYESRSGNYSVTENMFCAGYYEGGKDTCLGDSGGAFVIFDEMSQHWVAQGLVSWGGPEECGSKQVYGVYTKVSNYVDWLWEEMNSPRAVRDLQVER

Biological target: wild-type recombinant mouse MASP-3 fused with PA-tag (WT rmMASP-3-PA) (mouse) (UniProt P98064)
Assay: co-IP; 100 ug rmMASP-3-PA given intravenously to MASP-3-deficient C57BL/6J mice, serum taken after 3 h; immunoprecipitation with anti-PA tag antibody beads in TBS with 7 mM MgCl2 and 5 mM CaCl2, 4°C overnight, four washes; reducing SDS-PAGE and Western blot for each LP-PRM, band intensity normalised to rmMASP-3-PA; WT serum also precipitated in TBS with 7 mM MgCl2 and 10 mM EGTA as negative control (levels significantly reduced); only the target purified

binding: binds
B1: mouse ficolin-A (protein, UniProt O70165 18-334)
chain: SQALGQERGACPDVKVVGLGAQDKVVVIQSCPGFPGPPGPKGEPGSPAGRGERGFQGSPGKMGPAGSKGEPGTMGPPGVKGEKGDTGAAPSLGEKELGDTLCQRGPRSCKDLLTRGIFLTGWYTIHLPDCRPLTVLCDMDVDGGGWTVFQRRVDGSIDFFRDWDSYKRGFGNLGTEFWLGNDYLHLLTANGNQELRVDLQDFQGKGSYAKYSSFQVSEEQEKYKLTLGQFLEGTAGDSLTKHNNMSFTTHDQDNDANSMNCAALFHGAWWYHNCHQSNLNGRYLSGSHESYADGINWGTGQGHHYSYKVAEMKIRAS
